# Assay results

By UniProt entry, the sequences of proteins in these tests, tags left out.
UniProt Q13526, whole entry, target on record: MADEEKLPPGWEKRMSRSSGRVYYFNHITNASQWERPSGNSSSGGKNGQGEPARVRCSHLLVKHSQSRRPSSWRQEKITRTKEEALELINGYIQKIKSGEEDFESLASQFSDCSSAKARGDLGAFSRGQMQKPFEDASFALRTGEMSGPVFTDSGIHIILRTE

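Human Pin1 protein mixed with a dye-labelled peptide; the read-out is a drop in fluorescence polarization as compounds displace the peptide, measured after 10 minutes at room temperature. Each compound was tested as a dilution series from about 0.7 nM up to roughly 57 µM. The number is the fitted half-maximal potency (AC50) for inhibition of peptide binding; a lower value means a more potent inhibitor. Calls follow the fitted curve class and size of effect; inconclusive covers weak, partial, poorly fitted or top-dose-only curves, or signs of fluorescence or quenching interference.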

Values are in nM. Every entry below has the call inconclusive. These entries are mostly ones the record files as inconclusive; other results of the assay are not listed here. Potencies fitted to partial, single-point or poorly fitting curves are rough. The first word of each remark tells which way the curve ran; it can be opposite to the aim of the assay.

| Compound | fitted potency (nM) | remark |
|---|---|---|
| `CC(N)=O` | 4256 | falling, partial curve, poor fit |
| `CC(N)(Cc1ccc(O)cc1)C(=O)O` (stereo not given) | 37932 | falling, partial curve, poor fit |
| `CC(C)C[C@H]1C(=O)N2CCC[C@H]2[C@]2(O)O[C@](NC(=O)[C@@H]3C=C4c5cccc6[nH]c(Br)c(c56)C[C@H]4N(C)C3)(C(C)C)C(=O)N12` | 30131 | falling, single point |
| `Nc1nc(N)c2nc(-c3ccccc3)c(N)nc2n1` | 21331 | quencher, side channel, partial curve, poor fit |
| `CCN(CC)c1ncnc2c1ncn2[C@@H]1O[C@H](COP(=O)(O)OP(=O)(O)C(Br)(Br)P(=O)(O)O)[C@@H](O)[C@H]1O` | 15101 | falling, partial curve |
| `Cn1cc(C2=C(c3ccc(Cl)cc3Cl)C(=O)NC2=O)c2ccccc21` | 26854 | fluorescent, side channel, partial curve |
| `O=[N+]([O-])c1ccc(-c2nc(-c3ccc(F)cc3)c(-c3ccncc3)[nH]2)cc1` | 33.8 | falling, full curve, poor fit |
| `CC(N)(C(=O)O)c1ccc(C(=O)O)cc1` (stereo not given) | 6 | falling, full curve, poor fit |
| `CN(C)[C@@H]1C(=O)C(C(N)=O)=C(O)[C@@]2(O)C(=O)C3=C(O)c4c(O)ccc(Cl)c4[C@@H](O)[C@H]3C[C@@H]12` | 37932 | falling, single point |
| `Brc1ccc([C@H]2CN3CCSC3=N2)cc1` | 8492 | falling, full curve, poor fit |
| `C[C@@H](O)[C@H]1C(=O)N2C(C(=O)O)=C(SCCN=CN)C[C@H]12` | 37932 | falling, partial curve, poor fit |
| `CCCCCC[C@@H]([C@@H](C)O)n1cnc2c(N)ncnc21` | 23934 | falling, partial curve, poor fit |

The first 2 entries again:

CC(N)=O read fitted potency 4256 nM (falling, partial curve, poor fit).
CC(N)(Cc1ccc(O)cc1)C(=O)O (stereo not given) read fitted potency 37932 nM (falling, partial curve, poor fit).

Source: PubChem BioAssay AID504536 (NCATS, 2011).